In US8486950B2, “Janus kinase inhibitor compounds and methods” (F. Hoffmann-La Roche AG, priority 2009, dated 2013):
Some results were stated once for a whole list of compounds, not compound by compound.

Biological target: T1, TYK2 kinase domain (Homo sapiens, UniProt P29597)
T1 construct: made in house; host or cells: SF9 insect cells (recombinant baculovirus)
T1 sequence (P29597 873-1187): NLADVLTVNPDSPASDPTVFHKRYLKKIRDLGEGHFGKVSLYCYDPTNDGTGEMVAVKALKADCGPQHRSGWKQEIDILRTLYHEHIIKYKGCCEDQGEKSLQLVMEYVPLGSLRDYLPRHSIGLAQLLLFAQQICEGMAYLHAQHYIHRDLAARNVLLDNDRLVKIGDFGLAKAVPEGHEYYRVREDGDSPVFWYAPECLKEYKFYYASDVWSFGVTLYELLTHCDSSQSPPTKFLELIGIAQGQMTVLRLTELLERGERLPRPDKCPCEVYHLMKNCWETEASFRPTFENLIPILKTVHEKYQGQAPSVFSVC
Test: TYK2 inhibition assay (Caliper LabChip, isolated kinase domain)
Format: biochemical
Conditions: 25 uM ATP, values given as 'about'

Ki | Structure (SMILES)
< 3.5 µM | CC(C)c1cc(Nc2cc(NC(=O)c3c(Cl)cccc3Cl)ccn2)nc(N2CCS(=O)(=O)CC2)n1 [Example 529, 2,6-dichloro-N-(2-(6-issopropyl-2-(S-dioxa-thiomorpholino)pyrimidin-4-ylamino)pyridin-4-yl)benzamide]
< 3.5 µM | Cc1cc(Nc2cc(NC(=O)c3c(Cl)cccc3Cl)ccn2)on1 [Example 530, 2,6-dichloro-N-(2-(3-methylisoxazol-5-ylamino)pyridin-4-yl)benzamide]
< 3.5 µM | Cc1cc(Nc2cc(NC(=O)c3c(Cl)cccc3Cl)ccn2)no1 [Example 531, 2,6-dichloro-N-(2-(5-methylisoxazol-3-ylamino)pyridin-4-yl)benzamide]
< 3.5 µM | Cc1cc(Nc2cc(NC(=O)c3c(Cl)cccc3Cl)ccn2)n(C)n1 [Example 532, 2,6-dichloro-N-(2-(1,3-dimethyl-1H-pyrazol-5-ylamino)pyridin-4-yl)benzamide]
< 3.5 µM | NC(=O)c1cccc(Nc2cc(NC(=O)c3c(Cl)cccc3Cl)ccn2)n1 [Example 533, 6-(4-(2,6-dichlorobenzamido)pyridin-2-ylamino)picolinamide]
< 3.5 µM | CCc1cc(Nc2cc(NC(=O)c3c(Cl)cccc3Cl)ccn2)nc(N2CCNCC2)n1 [Example 534, 2,6-dichloro-N-(2-(6-ethyl-2-(piperazin-1-yl)pyrimidin-4-ylamino)pyridin-4-yl)benzamide]
< 3.5 µM | CCc1cc(Nc2cc(NC(=O)c3c(Cl)cccc3Cl)ccn2)nc(NC)n1 [Example 535, 2,6-dichloro-N-(2-(6-ethyl-2-(methylamino)pyrimidin-4-ylamino)pyridin-4-yl)benzamide]
< 3.5 µM | CCc1cc(Nc2cc(NC(=O)c3c(Cl)cccc3Cl)ccn2)nc(NCC2CC2)n1 [Example 536, 2,6-dichloro-N-(2-(2-(cyclopropylmethylamino)-6-ethylpyrimidin-4-ylamino)pyridin-4-yl)benzamide]
< 3.5 µM | CC(C)c1cc(Nc2cc(NC(=O)c3c(Cl)cccc3Cl)ccn2)nc(N2CCNCC2)n1 [Example 537, 2,6-dichloro-N-(2-(6-isopropyl-2-(piperazin-1-yl)pyrimidin-4-ylamino)pyridin-4-yl)benzamide]
< 3.5 µM | CC(C)c1cc(Nc2cc(NC(=O)c3c(Cl)cccc3Cl)ccn2)nc(N[C@@H](C)CO)n1 [Example 538, (S)-2,6-dichloro-N-(2-(2-(1-hydroxypropan-2-ylamino)-6-isopropylpyrimidin-4-ylamino)pyridin-4-yl)benzamide]
< 3.5 µM | CC(C)c1cc(Nc2cc(NC(=O)c3c(Cl)cccc3Cl)ccn2)nc(N2CCC[C@@H](O)C2)n1 [Example 539, (R)-2,6-dichloro-N-(2-(2-(3-hydroxypiperidin-1-yl)-6-isopropylpyrimidin-4-ylamino)pyridin-4-yl)benzamide]
< 3.5 µM | O=C(Nc1ccnc(Nc2cc(C(F)(F)F)nc(N3CCC(O)CC3)n2)c1)c1c(Cl)cccc1Cl [Example 540, 2,6-dichloro-N-(2-(2-(4-hydroxypiperidin-1-yl)-6-(trifluoromethyl)pyrimidin-4-ylamino)pyridin-4-yl)benzamide]
< 3.5 µM | CN1CCN(c2nc(Nc3cc(NC(=O)c4c(Cl)cccc4Cl)ccn3)cc(C(F)(F)F)n2)CC1 [Example 541, 2,6-dichloro-N-(2-(2-(4-methylpiperazin-1-yl)-6-(trifluoromethyl)pyrimidin-4-ylamino)pyridin-4-yl)benzamide]
< 3.5 µM | O=C(Nc1ccnc(Nc2cc(C(F)(F)F)nc(N3CCC3)n2)c1)c1c(Cl)cccc1Cl [Example 542, N-(2-(2-(azetidin-1-yl)-6-(trifluoromethyl)pyrimidin-4-ylamino)pyridin-4-yl)-2,6-dichlorobenzamide]
< 3.5 µM | CN(C)c1nc(Nc2cc(NC(=O)c3c(Cl)cccc3Cl)ccn2)cc(C(F)(F)F)n1 [Example 543, 2,6-dichloro-N-(2-(2-(dimethylamino)-6-(trifluoromethyl)pyrimidin-4-ylamino)pyridin-4-yl)benzamide]
< 3.5 µM | O=C(Nc1ccnc(Nc2cc(C(F)(F)F)nc(N3CCOCC3)n2)c1)c1c(Cl)cccc1Cl [Example 544, 2,6-dichloro-N-(2-(2-morpholino-6-(trifluoromethyl)pyrimidin-4-ylamino)pyridin-4-yl)benzamide]
< 3.5 µM | CCc1cc(Nc2cc(NC(=O)c3c(Cl)cccc3Cl)ccn2)nc(N2CCCC2)n1 [Example 545, 2,6-dichloro-N-(2-(6-ethyl-2-(pyrrolidin-1-yl)pyrimidin-4-ylamino)pyridin-4-yl)benzamide]
< 3.5 µM | CCc1cc(Nc2cc(NC(=O)c3c(Cl)cccc3Cl)ccn2)nc(N2CC[C@H](O)C2)n1 [Example 546, (S)-2,6-dichloro-N-(2-(6-ethyl-2-(3-hydroxypyrrolidin-1-yl)pyrimidin-4-ylamino)pyridin-4-yl)benzamide]
< 3.5 µM | CCc1cc(Nc2cc(NC(=O)c3c(Cl)cccc3Cl)ccn2)nc(NCC(C)O)n1 (stereo not drawn) [Example 547, 2,6-dichloro-N-(2-(6-ethyl-2-(2-hydroxypropylamino)-pyrimidin-4-ylamino)pyridin-4-yl)benzamide]
< 3.5 µM | CCc1cc(Nc2cc(NC(=O)c3c(Cl)cccc3Cl)ccn2)nc(N2CCC[C@@H](O)C2)n1 [Example 548, (R)-2,6-dichloro-N-(2-(6-ethyl-2-(3-hydroxypiperidin-1-yl)pyrimidin-4-ylamino)pyridin-4-yl)benzamide]
< 3.5 µM | CCc1cc(Nc2cc(NC(=O)c3c(Cl)cccc3Cl)ccn2)nc(N2CC(C)OC(C)C2)n1 (stereo not drawn) [Example 549, 2,6-dichloro-N-(2-(2-(2,6-dimethylmorpholino)-6-ethylpyrimidin-4-ylamino)pyridin-4-yl)benzamide]
< 3.5 µM | CC(C)c1cc(Nc2cc(NC(=O)c3c(Cl)cccc3Cl)ccn2)nc(N2CCCC2)n1 [Example 550, 2,6-dichloro-N-(2-(6-issopropyl-2-(pyrrolidin-1-yl)pyrimidin-4-ylamino)pyridin-4-yl)benzamide]
< 3.5 µM | CNc1nc(Nc2cc(NC(=O)c3c(Cl)cccc3Cl)ccn2)cc(C(C)C)n1 [Example 551, 2,6-dichloro-N-(2-(6-isopropyl-2-(methylamino)pyrimidin-4-ylamino)pyridin-4-yl)benzamide]
< 3.5 µM | CCNc1nc(Nc2cc(NC(=O)c3c(Cl)cccc3Cl)ccn2)cc(C(C)C)n1 [Example 552, 2,6-dichloro-N-(2-(2-(ethylamino)-6-issopropylpyrimidin-4-ylamino)pyridin-4-yl)benzamide]
< 3.5 µM | CC(O)CNc1nc(Nc2cc(NC(=O)c3c(Cl)cccc3Cl)ccn2)cc(C(C)C)n1 (stereo not drawn) [Example 553, 2,6-dichloro-N-(2-(2-(2-hydroxypropylamino)-6-isopropylpyrimidin-4-ylamino)pyridin-4-yl)benzamide]
< 3.5 µM | CC1CN(c2nc(Nc3cc(NC(=O)c4c(Cl)cccc4Cl)ccn3)cc(C(C)C)n2)CC(C)O1 (stereo not drawn) [Example 554, 2,6-dichloro-N-(2-(2-(2,6-dimethylmorpholino)-6-isopropylpyrimidin-4-ylamino)pyridin-4-yl)benzamide]
< 3.5 µM | O=C(Nc1ccnc(Nc2cc(C(F)(F)F)nc(N3CCNCC3)n2)c1)c1c(Cl)cccc1Cl [Example 555, 2,6-dichloro-N-(2-(2-(piperazin-1-yl)-6-(trifluoromethyl)pyrimidin-4-ylamino)pyridin-4-yl)benzamide]
